Measurements from US20240076742A1, “METHODS FOR IMPROVED CANCER TREATMENT” (CELLPHENOMICS GMBH, priority 2020, published 2024).
At least one compound was matched to its structure with a doubt left.

System: colorectal cancer tumor cells with the SMAD4^wt gene
Test: Cell viability (CellTiterGlo) of patient-derived colorectal tumor cells in Matrigel, SMAD4 wt
Assay type: cell-based, human
Conditions: functional SMAD4^wt, tested 0.0008-0.1 μg/ml, 4-day treatment, FIG. 4

CC(=O)Nc1cccc(-n2c(=O)n(C3CC3)c(=O)c3c(Nc4ccc(I)cc4F)n(C)c(=O)c(C)c32)c1 [trametinib, N-(3-{3-Cyclopropyl-5-[(2-fluor-4-iodphenyl)amino]-6,8-dimethyl-2,4,7-trioxo-3,4,6,7-tetrahydropyrido[4,3-d]pyrimidin-1(2H)-yl}phenyl)acetamid]
tumor cell viability relative to IC50 with increasing concentrations of trametinib: steadily lays over the mean inhibitory concentration (IC50)
